This experiment has as its target T1, Pex1-Strep2 (S. cerevisiae Pex1, WT) (S. cerevisiae) (UniProt P24004).
T1 sequence: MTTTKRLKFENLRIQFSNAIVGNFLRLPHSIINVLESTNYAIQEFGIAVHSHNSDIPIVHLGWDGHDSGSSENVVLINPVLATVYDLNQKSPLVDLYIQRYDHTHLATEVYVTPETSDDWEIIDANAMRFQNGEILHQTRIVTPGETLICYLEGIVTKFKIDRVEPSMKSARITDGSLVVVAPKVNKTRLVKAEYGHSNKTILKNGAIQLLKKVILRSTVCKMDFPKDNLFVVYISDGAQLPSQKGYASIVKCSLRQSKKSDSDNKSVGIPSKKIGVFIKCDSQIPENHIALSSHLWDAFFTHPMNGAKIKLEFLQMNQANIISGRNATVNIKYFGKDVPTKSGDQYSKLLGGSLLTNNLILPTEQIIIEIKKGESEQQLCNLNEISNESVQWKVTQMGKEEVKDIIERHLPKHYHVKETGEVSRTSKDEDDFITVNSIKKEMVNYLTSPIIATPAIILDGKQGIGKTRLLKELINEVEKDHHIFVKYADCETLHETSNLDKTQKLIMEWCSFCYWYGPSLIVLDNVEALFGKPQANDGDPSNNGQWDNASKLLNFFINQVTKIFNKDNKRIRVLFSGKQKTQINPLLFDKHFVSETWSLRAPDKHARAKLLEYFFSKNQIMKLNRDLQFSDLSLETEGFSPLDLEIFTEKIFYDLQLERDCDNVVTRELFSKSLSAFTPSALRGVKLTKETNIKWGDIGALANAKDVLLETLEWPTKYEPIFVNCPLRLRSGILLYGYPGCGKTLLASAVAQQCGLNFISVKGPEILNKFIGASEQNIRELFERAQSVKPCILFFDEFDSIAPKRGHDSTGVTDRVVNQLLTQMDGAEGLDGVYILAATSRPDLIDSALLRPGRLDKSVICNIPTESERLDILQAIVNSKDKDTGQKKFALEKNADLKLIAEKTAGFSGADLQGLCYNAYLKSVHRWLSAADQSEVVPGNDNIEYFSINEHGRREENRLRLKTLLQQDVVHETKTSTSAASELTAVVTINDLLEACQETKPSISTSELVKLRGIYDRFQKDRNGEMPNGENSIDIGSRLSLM
The experiment is described as follows: cryo-EM structure; Pex1-Strep2/His-Pex6(E832Q) co-expressed in S. cerevisiae, purified by strep-tactin and SEC with 1-3 mM ATP; no substrate added; single particle cryo-EM, two states from one sample (class 3 single-seam, class 4 twin-seam); both purified.

The record followed here is PMC10518020, “Structure of the peroxisomal Pex1/Pex6 ATPase complex bound to a substrate” (Nature Communications, 2023).

No constants are given. Whether binding was seen depends on the method and setting. Some results given as binding are weak or reduced against the parent protein; the word gives no strength. Tags and fused reporters may be left off the sequences shown.

B1: His-Pex6(E832Q) (S. cerevisiae Pex6, Walker B mutant of D2) (enzyme, UniProt P33760 1-1030)
chain: MKASLTFSLSGIYAPCSISRDIYLEYGDKKAECLYGTIRLPQYGPGCTPGKIVHCVLDDSLPFCSIVVPSKLFGFMPTQPTMDFCYFEPILDNVVPVLDSVTFLINEQLYSKLMDLPQEMQQIQFLHYKYNINSMETVVHSRDILTSGLCQILNCSPFPQGLVDFTETQLILVNDTEQKLSALKYANEDEEYALPKIGTNSALSIDLESLPCTISRDLLRPAPHINDDNSIYAFTDAETLLRLDVTSGSFITVSNMGCVRLVKLFVLLLPNGFKKRTIYAPPKIIASFPDCSVVTISKSNIGHTDIPIANQVFISRVGGWLQSQKCFQNIILTTLKKFFSESKRILCQNDLIPIAFDSSMADLNIAEENDESDDEDELGQYYKNDSLVWFFVTSAELDCFSKDNSHFIIDPNRTKLITTNITNRRPLPLSRSNLQRYYGFAETFYYDLHIFPYVRQLVNILETSFNCSQRGITLNASVLLHSTTNNVGKATMVRFASKYLGIHLLEIDCLSLTSNSRQLDSTSKIIGYIRAKCENVLPYASPAVIFLAHLDSILLDVNANQDPEAIKLQKSINFEMSKLLDDFTFKFPGTTFVGSVNNIDNVPSSFRSHMRFEILVPVPSEAQRLRIFQWYLSSHELNRDVQQKVPVSYMDNISFSSLSSYSAGLTPLDIKSIVETARMTATARFYQESKKCGWLPQSILITQEDLSKATSKARNEFSVSIGAPQIPNVTWDDIGGIDFVKGEILDTIDMPLKHPELFTSGMKKRSGILFYGPPGTGKTLMAKAIATNFSLNFFSVKGPELLNMYIGESEANVRRVFQKAREAKPCVIFFDQIDSVAPKRGNQGDSGGVMDRIVSQLLAELDGMSTDADGVFVIGATNRPDLLDEALLRPGRFDKLLYLGIPDTDTKQLNILEALTRKFVLDNDVKLIELAKLCPFNYTGADFYALCSDAMLNAMSRIARMVEKKVSQHNELTGENISTRRWFDKIATKEDTKVVVKMEDFLKAQEQLTPSVSRAELNHYEAVRANFEGA
For the molecule B1, the binding entry is listed as “binds”.
